According to patent US20240358735A1, “THERAPEUTIC COMPOSITIONS AND RELATED METHODS” (BOYCE THOMPSON INSTITUTE FOR PLANT RESEARCH, INC., priority 2021, published 2024):

Test system: Cbr-cest-2 mutants
Assay: Comparative metabolomics (HPLC-HRMS) of Cbr-cest-2 mutants versus wildtype C. briggsae (AF16)
Conditions: abundance of the metabolite in Cbr-cest-2 mutants compared to C. briggsae wildtype (AF16)

SMILES | Cbr-cest-2 fold over WT (AF16), average of 4 repeats
CCC/C=C/C(=O)OCC1OC(OC(=O)c2cccnc2)C(OC(=O)c2cccnc2)C(OP(=O)(O)O)C1O (stereo not drawn) [nglu#7] | 0.0002196
NCCc1ccc(O[C@@H]2O[C@H](COC(=O)c3ccccc3N)[C@@H](O)[C@H](OP(=O)(O)O)[C@H]2OC(=O)Cc2ccccc2)cc1 [tyglu#12] | 0.0002367
O=C(O[C@@H]1[C@@H](OP(=O)(O)O)[C@H](O)[C@@H](COC(=O)c2ccc[nH]2)O[C@H]1n1ccc2ccccc21)c1cccnc1 [iglu#40] | 0.002191
O=C(O[C@H]1[C@H](OC(=O)c2ccc[nH]2)O[C@H](CO)[C@@H](O)[C@@H]1OP(=O)(O)O)c1ccccc1 [pyglu#201] | 0.004462
CCC(O)C(=O)OC[C@H]1O[C@@H](n2ccc3ccccc32)[C@H](OC(=O)c2ccccc2N)[C@@H](OP(=O)(O)O)[C@@H]1O (stereo partly drawn) [iglu#49] | 0.006783
NCCc1ccc(O[C@@H]2O[C@H](COC(=O)c3ccccc3N)[C@@H](O)[C@H](OP(=O)(O)O)[C@H]2OC(=O)c2ccccn2)cc1 [tyglu#6] | 0.00005252
NCCc1ccc(O[C@@H]2O[C@H](COC(=O)c3ccc[nH]3)[C@@H](O)[C@H](OP(=O)(O)O)[C@H]2OC(=O)c2ccccc2N)cc1 [tyglu#34] | 0.005294
NCC(O)c1ccc(O[C@@H]2O[C@H](COC(=O)c3ccccc3N)[C@@H](O)[C@H](OP(=O)(O)O)[C@H]2O)cc1 (stereo partly drawn) [oglu#4] | 0.0077
Nc1ccccc1C(=O)OC[C@H]1O[C@@H](n2ccc3ccccc32)[C@H](OC(=O)c2ccccc2N)[C@@H](CP(=O)(O)O)[C@@H]1O [iglu#74] | 4.29E−05
Nc1ccccc1C(=O)O[C@@H]1O[C@H](COC(=O)c2ccccc2)[C@@H](O)[C@H](OP(=O)(O)O)[C@H]1OC(=O)c1cccnc1 [angl#29] | 0.0008133
CCC(=O)OC[C@H]1O[C@@H](n2ccc3ccccc32)[C@H](OC(=O)c2ccccc2N)[C@@H](OP(=O)(O)O)[C@@H]1O [iglu#24] | 0.008043
Nc1ccccc1C(=O)O[C@@H]1O[C@H](CO)[C@@H](O)[C@H](OP(=O)(O)O)[C@H]1OC(=O)c1ccccc1 [angl#161] | 0.004934
O=C(C[C@@H]1O[C@H](COC(=O)c2cccnc2)[C@@H](O)[C@H](OP(=O)(O)O)[C@H]1OC(=O)c1cccnc1)c1ccccc1 [bzglu#6] | 0.003133
NCCc1ccc(O[C@@H]2O[C@H](COC(=O)/C=C/c3c[nH]cn3)[C@@H](O)[C@H](OP(=O)(O)O)[C@H]2OC(=O)c2ccccc2N)cc1 [tyglu#38] | 0.001217
O=C(OCC1OC(OC(=O)c2ccccc2)C(OC(=O)c2ccc[nH]2)C(OP(=O)(O)O)C1O)c1cccnc1 (stereo not drawn) [bzglu#12] | 0.00312
Nc1ccccc1C(=O)C[C@@H]1O[C@H](COC(=O)c2ccccc2)[C@@H](O)[C@H](OP(=O)(O)O)[C@H]1OC(=O)c1ccccc1 [angl#70] | 8.68E−05
Nc1ccccc1C(=O)O[C@@H]1O[C@H](COC(=O)c2ccccc2)[C@@H](O)[C@H](OP(=O)(O)O)[C@H]1OC(=O)c1cccnc1 [angl#28] | 0.0005889
C/C=C(\C)C(=O)O[C@@H]1[C@@H](CP(=O)(O)O)[C@H](O)[C@@H](CO)O[C@H]1n1ccc2ccccc21 [iglu#801] | 8.69E−05
CCCCCCCCC(=O)CC(=O)O[C@H]1[C@H](Oc2ccc(CCN)cc2)O[C@H](CO)[C@@H](O)[C@@H]1OP(=O)(O)O [tyglu#53] | 0.002604
CCC/C=C/C(=O)OCC1OC(OC(=O)c2cccnc2)C(OC(=O)c2cccnc2)C(OP(=O)(O)O)C1O (stereo not drawn) [nglu#9] | 0.001272
Nc1ccccc1C(=O)O[C@@H]1[C@@H](CP(=O)(O)O)[C@H](O)[C@@H](COC(=O)c2ccc(O)cc2)O[C@H]1n1ccc2ccccc21 [iglu#76] | 0.000714
CCCC(O)CC(=O)CC(=O)OC[C@H]1O[C@@H](Oc2ccc(CCN)cc2)[C@H](OC(=O)c2ccccc2N)[C@@H](OP(=O)(O)O)[C@@H]1O (stereo partly drawn) [tyglu#45] | 0.0006813
CC(C)CC(=O)OC1C(Oc2ccc(CCN)cc2)OC(COC(=O)c2ccc[nH]2)C(O)C1OP(=O)(O)O (stereo not drawn) [tyglu#22] | 0.006583
CCCCCCCC/C=C/C(=O)O[C@H]1[C@H](Oc2ccc(CCN)cc2)O[C@H](CO)[C@@H](O)[C@@H]1OP(=O)(O)O [tyglu#54] | 0.002112
Nc1ccccc1C(=O)OC[C@H]1O[C@@H](OC(=O)c2ccccc2N)[C@H](OC(=O)c2ccccc2N)[C@@H](OP(=O)(O)O)[C@@H]1O [angl#36] | 1.99E−05
O=C(/C=C/c1c[nH]cn1)OC[C@H]1O[C@@H](n2ccc3ccccc32)[C@H](OC(=O)c2ccccc2)[C@@H](OP(=O)(O)O)[C@@H]1O [iglu#70] | 0.01157

SMILES | Cbr-cest-2 fold over WT (AF16), average of 4 repeats
Nc1ccccc1C(=O)OC[C@H]1O[C@@H](OC(=O)c2ccccc2N)[C@H](OC(=O)Cc2ccccc2)[C@@H](OP(=O)(O)O)[C@@H]1O [angl#56] | 0.0004587
O=C(Cc1ccccc1)O[C@@H]1[C@@H](OP(=O)(O)O)[C@H](O)[C@@H](CO)O[C@H]1n1ccc2ccccc21 [iglu#16] | 0.001912
NCCc1ccc(O[C@@H]2O[C@H](COC(=O)c3cccnc3)[C@@H](O)[C@H](OP(=O)(O)O)[C@H]2OC(=O)c2ccccc2)cc1 [tyglu#28] | 0.009783
CCC(O)C(=O)OC[C@H]1O[C@@H](n2ccc3ccccc32)[C@H](OC(=O)c2ccccc2N)[C@@H](OP(=O)(O)O)[C@@H]1O (stereo partly drawn) [iglu#48] | 0.002595
C/C=C(\C)C(=O)O[C@@H]1[C@@H](OP(=O)(O)O)[C@H](O)[C@@H](COC(=O)c2cccnc2)O[C@H]1n1ccc2ccccc21 [iglu#31] | 0.0001071
C/C=C(\C)C(=O)OCC1OC(OC(=O)c2cccnc2)C(OC(=O)c2cccnc2)C(OP(=O)(O)O)C1O (stereo not drawn) [nglu#6] | 0.01336
C/C=C(\C)C(=O)OCC1OC(OC(=O)c2cccnc2)C(OC(=O)c2cccnc2)C(OP(=O)(O)O)C1O (stereo not drawn) [nglu#5] | 0.004546
C[C@@H]1O[C@@H](OCCC(=O)OC[C@H]2O[C@@H](Oc3ccc(CCN)cc3)[C@H](OC(=O)c3ccccc3N)[C@@H](OP(=O)(O)O)[C@@H]2O)[C@H](O)C[C@H]1O [tyglas#5] | 0.001127
O=C(/C=C/c1cnc[nH]1)OC[C@H]1O[C@@H](n2ccc3ccccc32)[C@H](OC(=O)c2ccccc2)[C@@H](OP(=O)(O)O)[C@@H]1O [iglu#69] | 0.0008321
O=C(C[C@@H]1O[C@H](COC(=O)c2ccc[nH]2)[C@@H](O)[C@H](OP(=O)(O)O)[C@H]1OC(=O)c1ccc[nH]1)c1ccccc1 [bzglu#9] | 0.00368
Nc1ccccc1C(=O)O[C@@H]1O[C@H](COC(=O)c2cccnc2)[C@@H](O)[C@H](OP(=O)(O)O)[C@H]1O [angl#10] | 0.0001569
Nc1ccccc1C(=O)OC[C@H]1O[C@@H](n2ccc3ccccc32)[C@H](OC(=O)c2ccc[nH]2)[C@@H](OP(=O)(O)O)[C@@H]1O [iglu#57] | 0.006393
Nc1ccccc1C(=O)OCC1OC(n2ccc3ccccc32)C(OC(=O)c2ccccc2)C(OP(=O)(O)O)C1O (stereo not drawn) [iglu#65] | 5.36E−05
Nc1ccccc1C(=O)O[C@@H]1O[C@H](COC(=O)c2ccc[nH]2)[C@@H](O)[C@H](OP(=O)(O)O)[C@H]1OC(=O)c1cccnc1 [angl#23] | 0.00139
Nc1ccccc1C(=O)C[C@@H]1O[C@H](COC(=O)Cc2ccc(O)cc2)[C@@H](O)[C@H](OP(=O)(O)O)[C@H]1OC(=O)c1ccccc1N [angl#50] | 0.0001897
Nc1ccccc1C(=O)O[C@@H]1[C@@H](OP(=O)(O)O)[C@H](O)[C@@H](COC(=O)/C=C/c2c[nH]cn2)O[C@H]1n1ccc2ccccc21 [iglu#82] | 0.001493
Nc1ccccc1C(=O)O[C@@H]1O[C@H](COC(=O)C(N)Cc2ccccc2)[C@@H](O)[C@H](OP(=O)(O)O)[C@H]1OC(=O)c1ccccc1 (stereo partly drawn) [angl#38] | 0.01503
NCC(O)c1ccc(C[C@@H]2O[C@H](COC(=O)c3ccccc3N)[C@@H](O)[C@H](OP(=O)(O)O)[C@H]2OC(=O)c2cccnc2)cc1 (stereo partly drawn) [oglu#15] | 0.003824
CCCCCCCC/C=C/C(=O)OC[C@H]1O[C@@H](Oc2ccc(CCN)cc2)[C@H](OC(=O)c2cccnc2)[C@@H](OP(=O)(O)O)[C@@H]1O [tyglu#56] | 0.0005263
CCCCCC(=O)CC(=O)OC[C@H]1O[C@@H](Cc2ccc(C(O)CN)cc2)[C@H](OC(=O)c2ccccc2N)[C@@H](OP(=O)(O)O)[C@@H]1O (stereo partly drawn) [oglu#22] | 0.000583
CCCCCCCCCCCC(=O)O[C@H]1[C@H](OC(=O)c2ccccc2N)O[C@H](COC(=O)c2ccccc2N)[C@@H](O)[C@@H]1OP(=O)(O)O [angl#41] | 0.0004091
C/C=C(\C)C(=O)OC[C@H]1O[C@@H](Cc2ccc(C(O)CN)cc2)[C@H](OC(=O)c2ccccc2N)[C@@H](OP(=O)(O)O)[C@@H]1O (stereo partly drawn) [oglu#10] | 0.00416
NCCc1ccc(O[C@@H]2O[C@H](CO)[C@@H](O)[C@H](OP(=O)(O)O)[C@H]2OC(=O)c2ccc[nH]2)cc1 [tyglu#181] | 0.004887
C/C=C(\C)C(=O)OC1C(Oc2ccc(CCN)cc2)OC(COC(=O)c2ccccc2)C(O)C1OP(=O)(O)O (stereo not drawn) [tyglu#26] | 0.01521
CCCCCCCCCCCC(=O)OC[C@H]1O[C@@H](OC(=O)c2ccccc2N)[C@H](OC(=O)c2ccccc2N)[C@@H](OP(=O)(O)O)[C@@H]1O [angl#40] | 0.0007132
